# According to paper PMC11372060, “Two KaiABC systems control circadian oscillations in one cyanobacterium” (Nature Communications, 2024):
# These are yes or no findings as the source states them, for the method shown. In cells and extracts the contact can be indirect. These calls come from enrichment with a bait or labelling near it, and not all partners need be listed. No binding means not detected with the bait. Tags and fused reporters may be left off the sequences shown.
# Molecular target: T1, FLAG-tagged KaiC1 (Synechocystis sp. PCC 6803) (UniProt P74646)
# T1 sequence: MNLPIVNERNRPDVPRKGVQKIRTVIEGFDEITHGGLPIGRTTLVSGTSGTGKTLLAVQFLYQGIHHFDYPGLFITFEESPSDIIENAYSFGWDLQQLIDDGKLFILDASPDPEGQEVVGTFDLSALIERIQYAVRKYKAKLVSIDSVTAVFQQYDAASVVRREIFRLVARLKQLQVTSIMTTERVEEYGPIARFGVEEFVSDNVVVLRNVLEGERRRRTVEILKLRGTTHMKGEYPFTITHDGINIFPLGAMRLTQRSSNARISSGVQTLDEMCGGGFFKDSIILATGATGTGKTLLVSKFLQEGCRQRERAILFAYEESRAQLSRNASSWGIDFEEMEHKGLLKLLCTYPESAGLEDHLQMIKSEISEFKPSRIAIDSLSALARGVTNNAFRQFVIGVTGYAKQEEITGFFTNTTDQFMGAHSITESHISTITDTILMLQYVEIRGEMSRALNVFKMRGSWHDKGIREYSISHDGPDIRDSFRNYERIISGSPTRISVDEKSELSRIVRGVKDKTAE
# Assay: affinity purification with mass spectrometry; FLAG-tagged bait in Synechocystis (PCC-M); extract solubilised with n-dodecyl-β-maltoside, buffer with 1 mM ATP; Anti-Flag M2 magnetic beads; eluates by nanoLC-MS/MS; FLAG-sfGFP strain as control
substance,measurement,value
"KaiA3 (Sll0485), endogenous in Synechocystis",binding,no binding
